Laboratory results taken from the supplement of paper PMC10849652.
This is one part of the list.

Protein sequences, listed by entry. Tags and fused reporters are not part of them. Lines headed by an entry give the natural chain unless they say otherwise; changes in a name come on top.
UniProt Q9HD34: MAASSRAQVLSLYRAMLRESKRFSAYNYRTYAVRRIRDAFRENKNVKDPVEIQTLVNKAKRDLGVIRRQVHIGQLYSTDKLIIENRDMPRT
UniProt P62312: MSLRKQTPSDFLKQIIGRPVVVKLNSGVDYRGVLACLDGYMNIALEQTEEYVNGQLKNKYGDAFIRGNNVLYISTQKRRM
UniProt Q7L5Y9: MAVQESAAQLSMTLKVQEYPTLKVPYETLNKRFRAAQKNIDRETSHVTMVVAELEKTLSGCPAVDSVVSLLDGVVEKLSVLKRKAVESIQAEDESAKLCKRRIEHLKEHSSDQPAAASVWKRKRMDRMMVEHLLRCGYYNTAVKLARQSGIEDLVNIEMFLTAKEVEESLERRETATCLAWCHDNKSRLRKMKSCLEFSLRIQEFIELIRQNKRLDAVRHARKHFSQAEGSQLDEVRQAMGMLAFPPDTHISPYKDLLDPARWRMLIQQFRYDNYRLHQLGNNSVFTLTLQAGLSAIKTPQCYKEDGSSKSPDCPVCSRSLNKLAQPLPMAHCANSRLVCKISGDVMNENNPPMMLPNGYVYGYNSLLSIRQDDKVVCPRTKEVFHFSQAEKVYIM
UniProt Q9UKM7: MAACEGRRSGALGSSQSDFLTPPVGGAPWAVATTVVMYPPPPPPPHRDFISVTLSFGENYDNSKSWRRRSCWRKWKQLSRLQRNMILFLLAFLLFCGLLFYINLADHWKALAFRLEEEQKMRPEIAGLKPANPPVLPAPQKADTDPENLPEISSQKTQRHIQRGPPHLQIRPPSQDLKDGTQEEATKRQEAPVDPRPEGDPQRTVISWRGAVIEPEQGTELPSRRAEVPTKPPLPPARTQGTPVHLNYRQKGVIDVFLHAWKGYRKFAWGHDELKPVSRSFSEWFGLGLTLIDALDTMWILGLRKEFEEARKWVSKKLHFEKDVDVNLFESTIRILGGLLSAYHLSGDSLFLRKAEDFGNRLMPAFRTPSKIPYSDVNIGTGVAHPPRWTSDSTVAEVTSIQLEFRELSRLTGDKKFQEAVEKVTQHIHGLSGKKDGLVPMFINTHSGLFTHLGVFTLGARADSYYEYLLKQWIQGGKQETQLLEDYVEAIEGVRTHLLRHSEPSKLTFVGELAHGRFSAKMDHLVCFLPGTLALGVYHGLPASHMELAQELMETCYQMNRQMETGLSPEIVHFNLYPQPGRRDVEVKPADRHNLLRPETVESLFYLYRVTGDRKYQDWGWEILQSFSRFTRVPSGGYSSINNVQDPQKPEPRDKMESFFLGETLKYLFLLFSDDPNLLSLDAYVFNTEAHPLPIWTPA
UniProt Q15013: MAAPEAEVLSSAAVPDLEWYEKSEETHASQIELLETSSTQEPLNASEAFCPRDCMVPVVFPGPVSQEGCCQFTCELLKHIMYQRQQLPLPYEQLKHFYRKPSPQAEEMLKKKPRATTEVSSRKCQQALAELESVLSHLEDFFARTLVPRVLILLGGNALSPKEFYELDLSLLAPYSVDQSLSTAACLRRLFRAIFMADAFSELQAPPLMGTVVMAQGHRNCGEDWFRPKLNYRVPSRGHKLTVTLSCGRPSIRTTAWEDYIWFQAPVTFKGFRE
UniProt Q9NU23: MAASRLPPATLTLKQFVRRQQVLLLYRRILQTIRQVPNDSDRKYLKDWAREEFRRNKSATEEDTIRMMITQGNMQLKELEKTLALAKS
UniProt Q9NQ48: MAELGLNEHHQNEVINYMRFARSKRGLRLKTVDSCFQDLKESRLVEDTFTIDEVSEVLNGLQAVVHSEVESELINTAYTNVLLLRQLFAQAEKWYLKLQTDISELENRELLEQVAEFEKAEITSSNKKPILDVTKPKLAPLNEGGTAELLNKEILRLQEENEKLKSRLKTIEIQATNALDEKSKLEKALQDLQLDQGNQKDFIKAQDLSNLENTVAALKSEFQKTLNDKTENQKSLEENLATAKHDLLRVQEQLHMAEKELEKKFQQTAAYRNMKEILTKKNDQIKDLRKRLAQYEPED
UniProt P09960: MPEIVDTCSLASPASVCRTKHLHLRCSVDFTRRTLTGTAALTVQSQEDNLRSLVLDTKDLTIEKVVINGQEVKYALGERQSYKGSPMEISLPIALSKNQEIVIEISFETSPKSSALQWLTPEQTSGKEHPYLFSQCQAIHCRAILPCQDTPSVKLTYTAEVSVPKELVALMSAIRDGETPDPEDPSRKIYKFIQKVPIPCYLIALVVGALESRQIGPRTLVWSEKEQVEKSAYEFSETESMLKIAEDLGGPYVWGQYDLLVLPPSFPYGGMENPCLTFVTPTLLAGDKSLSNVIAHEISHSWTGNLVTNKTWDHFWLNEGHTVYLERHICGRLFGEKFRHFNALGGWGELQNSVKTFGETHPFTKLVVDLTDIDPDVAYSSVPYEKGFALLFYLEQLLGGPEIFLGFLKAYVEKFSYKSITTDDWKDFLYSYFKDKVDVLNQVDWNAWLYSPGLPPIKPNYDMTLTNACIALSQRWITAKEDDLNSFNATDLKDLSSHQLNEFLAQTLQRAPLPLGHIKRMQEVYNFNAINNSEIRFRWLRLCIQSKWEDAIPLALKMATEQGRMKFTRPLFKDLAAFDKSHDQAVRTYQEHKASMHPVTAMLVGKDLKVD
UniProt P20645: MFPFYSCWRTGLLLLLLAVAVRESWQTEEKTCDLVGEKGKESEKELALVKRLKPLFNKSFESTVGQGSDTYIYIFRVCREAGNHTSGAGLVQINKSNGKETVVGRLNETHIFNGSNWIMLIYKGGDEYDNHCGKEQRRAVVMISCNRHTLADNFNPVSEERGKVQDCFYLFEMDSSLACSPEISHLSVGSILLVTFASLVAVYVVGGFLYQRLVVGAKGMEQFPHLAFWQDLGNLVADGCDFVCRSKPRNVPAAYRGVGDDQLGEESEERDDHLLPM
UniProt P27361, whole entry, looked up: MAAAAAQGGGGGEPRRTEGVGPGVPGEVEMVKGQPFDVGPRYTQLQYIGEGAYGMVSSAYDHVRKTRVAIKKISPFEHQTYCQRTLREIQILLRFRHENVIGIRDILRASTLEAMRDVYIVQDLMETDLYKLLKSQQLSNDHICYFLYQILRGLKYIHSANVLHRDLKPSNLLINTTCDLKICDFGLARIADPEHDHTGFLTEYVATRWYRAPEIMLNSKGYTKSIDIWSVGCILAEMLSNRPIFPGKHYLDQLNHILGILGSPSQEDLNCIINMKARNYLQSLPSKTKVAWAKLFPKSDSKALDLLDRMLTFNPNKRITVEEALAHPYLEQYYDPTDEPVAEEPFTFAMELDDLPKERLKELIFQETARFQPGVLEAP
UniProt Q96S90: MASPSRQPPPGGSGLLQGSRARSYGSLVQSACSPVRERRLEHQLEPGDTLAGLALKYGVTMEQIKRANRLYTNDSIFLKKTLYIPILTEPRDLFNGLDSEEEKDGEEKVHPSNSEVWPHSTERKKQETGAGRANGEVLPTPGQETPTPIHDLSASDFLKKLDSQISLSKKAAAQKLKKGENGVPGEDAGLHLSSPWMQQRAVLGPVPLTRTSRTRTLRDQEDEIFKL
UniProt Q9NTJ4: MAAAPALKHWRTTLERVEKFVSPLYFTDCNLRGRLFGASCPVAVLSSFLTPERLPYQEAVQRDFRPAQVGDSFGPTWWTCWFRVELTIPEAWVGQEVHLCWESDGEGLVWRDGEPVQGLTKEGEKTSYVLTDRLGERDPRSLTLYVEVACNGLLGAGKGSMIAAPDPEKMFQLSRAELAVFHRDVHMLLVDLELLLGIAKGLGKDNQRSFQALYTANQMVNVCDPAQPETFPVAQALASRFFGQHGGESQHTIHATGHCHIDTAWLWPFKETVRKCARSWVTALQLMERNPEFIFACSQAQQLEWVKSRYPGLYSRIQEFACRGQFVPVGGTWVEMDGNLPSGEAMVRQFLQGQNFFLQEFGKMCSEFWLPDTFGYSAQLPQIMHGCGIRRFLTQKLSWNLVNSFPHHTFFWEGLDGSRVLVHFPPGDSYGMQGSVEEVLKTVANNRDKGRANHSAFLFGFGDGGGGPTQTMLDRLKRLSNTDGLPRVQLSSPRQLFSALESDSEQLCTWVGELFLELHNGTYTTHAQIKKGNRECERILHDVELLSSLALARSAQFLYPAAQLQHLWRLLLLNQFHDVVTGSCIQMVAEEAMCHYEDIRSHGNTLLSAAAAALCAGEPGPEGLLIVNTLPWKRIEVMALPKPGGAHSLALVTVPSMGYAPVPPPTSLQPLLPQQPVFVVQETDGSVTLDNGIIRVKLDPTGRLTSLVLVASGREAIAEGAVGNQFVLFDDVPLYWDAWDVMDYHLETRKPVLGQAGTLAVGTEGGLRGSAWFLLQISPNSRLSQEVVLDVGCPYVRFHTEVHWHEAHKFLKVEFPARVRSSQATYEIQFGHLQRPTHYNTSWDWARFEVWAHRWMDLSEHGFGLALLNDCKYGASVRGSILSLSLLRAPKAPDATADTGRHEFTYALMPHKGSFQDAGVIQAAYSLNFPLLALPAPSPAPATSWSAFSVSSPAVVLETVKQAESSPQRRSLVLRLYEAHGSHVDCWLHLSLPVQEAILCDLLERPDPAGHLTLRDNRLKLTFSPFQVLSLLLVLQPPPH
UniProt Q5SRI9: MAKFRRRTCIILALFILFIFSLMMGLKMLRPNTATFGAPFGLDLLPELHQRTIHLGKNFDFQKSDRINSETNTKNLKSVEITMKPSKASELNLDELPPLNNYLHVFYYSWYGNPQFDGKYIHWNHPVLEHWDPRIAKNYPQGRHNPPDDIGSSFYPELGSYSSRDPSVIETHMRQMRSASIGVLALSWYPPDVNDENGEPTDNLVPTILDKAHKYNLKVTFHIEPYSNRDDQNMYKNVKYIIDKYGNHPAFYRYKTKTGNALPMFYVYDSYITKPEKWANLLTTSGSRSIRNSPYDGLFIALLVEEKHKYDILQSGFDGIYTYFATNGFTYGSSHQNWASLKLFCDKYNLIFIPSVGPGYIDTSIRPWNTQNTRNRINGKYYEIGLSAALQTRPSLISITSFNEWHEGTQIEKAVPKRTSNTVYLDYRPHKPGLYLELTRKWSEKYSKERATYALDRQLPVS
UniProt Q8WZA0: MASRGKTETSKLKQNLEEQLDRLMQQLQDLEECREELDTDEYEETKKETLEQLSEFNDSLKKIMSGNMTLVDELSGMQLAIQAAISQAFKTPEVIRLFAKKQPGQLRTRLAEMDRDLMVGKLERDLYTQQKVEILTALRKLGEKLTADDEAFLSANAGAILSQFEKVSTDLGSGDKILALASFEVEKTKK

Experiments:
Assay in all cases: log2 fold change, soluble protein after heating vs DMSO (PISA); higher = thermal stabilisation; K562 cells, 10 uM, 30 min; active = over 0.2 and 3.5 SD of the protein, either way, in both replicates (recomputed)
[1] = compound: CN1CCN(CCOc2cc(OC3CCOCC3)c3c(Nc4c(Cl)ccc5c4OCO5)ncnc3c2)CC1 [saracatinib]
Outline: (§1)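 K562 cells at 2×10^6 cells/mL were treated with 10 μM compound for 30 min. Aliquots were heated for 3 min across 48°C-58°C, pooled, and extracted in PBS with 0.5% NP-40 at 4°C; soluble protein was the supernatant after 21,000xg for 90 min. Soluble protein was quantified by TMTpro 16plex LC-MS/MS with channel sums equalised, and reported as log2 fold change in thermal stability against DMSO controls, with values from duplicates.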

[2] = compound: CN1CCN(c2nc(C3=C(c4c[nH]c5ccccc45)C(=O)NC3=O)c3ccccc3n2)CC1 [sotrastaurin]
Outline: as §1

[3] = compound: CN1CC[C@H](c2c(O)cc(O)c3c(=O)cc(-c4ccccc4Cl)oc23)[C@H](O)C1 [alvocidib]
Outline: as §1

[4] = compound: CN1CCc2c(c3ccccc3n2Cc2ccc(C(=O)NO)cc2)C1 [Tubastatin A]
Outline: as §1

[5] = compound: CNC(=O)C1=CC=CC=C1NC2=NC(=NC=C2Cl)NC3=C(C=C(C=C3)N4CCOCC4)OC
Outline: as §1

[6] = compound: CNC(=O)c1ccc(Nc2ncc(C(F)(F)F)c(NCc3nccnc3N(C)S(C)(=O)=O)n2)cc1 [defactinib]
Outline: as §1

[7] = compound: CNCc1ccc(-c2[nH]c3cc(F)cc4c3c2CCNC4=O)cc1 [rucaparib]
Outline: as §1

[8] = compound: CNc1nc(-c2ccc3c(N)n[nH]c3c2)cc(N2C[C@@H](C(=O)NC3CCCCC3)CC[C@H]2C)n1
Outline: as §1

[9] = compound: COC(=O)N[C@@H](C)CNc1nccc(-c2cn(C(C)C)nc2-c2cc(Cl)cc(NS(C)(=O)=O)c2F)n1 [encorafenib]
Outline: as §1

[10] = compound: COC(=O)[C@H](CCSC)NC(=O)C1=C(C=C(C=C1)NC[C@H](CS)N)C2=CC=CC=C2
Outline: as §1

[11] = compound: COC1=CC=C(C=C1)CN2C=CC3=C2C=C(C=C3)C(=O)NO
Outline: as §1

[12] = compound: CON(C)C(=O)N1N=C(c2cc(F)ccc2F)S[C@@]1(CCCN)c1ccccc1 [filanesib]
Outline: as §1

[13] = compound: CO[C@H]1C[C@@H]2CC[C@@H](C)[C@@](O)(O2)C(=O)C(=O)N2CCCC[C@H]2C(=O)O[C@H]([C@H](C)C[C@@H]2CC[C@H](n3cnnn3)[C@H](OC)C2)CC(=O)[C@H](C)/C=C(\C)[C@@H](O)[C@@H](OC)C(=O)[C@H](C)C[C@H](C)/C=C/C=C/C=C/1C [zotarolimus]
Outline: as §1

[14] = compound: COc1cc(C(=O)O)ccc1NC(=O)[C@@H]1N[C@@H](CC(C)(C)C)[C@](C#N)(c2ccc(Cl)cc2F)[C@H]1c1cccc(Cl)c1F [idasanutlin]
Outline: as §1

[15] = compound: COc1cc(Nc2ncc3c(n2)-c2ccc(Cl)cc2C(c2c(F)cccc2OC)=NC3)ccc1C(=O)O [alisertib]
Outline: as §1

[16] = compound: COc1cc2nc(-c3cc(F)ccc3O)nc(N[C@@H]3CNC[C@H]3C(C)(C)O)c2cc1OC
Outline: as §1

[17] = compound: COc1cc2ncnc(Nc3ccc(F)c(Cl)c3)c2cc1OCCCN1CCOCC1 [gefitinib]
Outline: as §1

[18] = compound: COc1cccc2cc(-c3nc([C@H]4CC[C@H](C(=O)O)CC4)n4ncnc(N)c34)[nH]c12
Outline: as §1

[19] = compound: CS(=O)(=O)CCNCc1ccc(-c2ccc3ncnc(Nc4ccc(OCc5cccc(F)c5)c(Cl)c4)c3c2)o1 [lapatinib]
Outline: as §1

[20] = compound: CS(=O)(=O)N1CCN(Cc2cc3nc(-c4cccc5[nH]ncc45)nc(N4CCOCC4)c3s2)CC1 [pictilisib]
Outline: as §1

Measured: log2 fold change

LYAR (UniProt Q9NX58)
inactive: [1] -0.068 | [2] -0.019 | [3] 0.454 | [4] 0.071 | [5] 0.107 | [6] 0.767 | [7] 0.429 | [8] 0.065 | [9] 0.227 | [10] -0.067 | [11] -0.123 | [12] 0.861 | [13] 0.136 | [14] 0.367 | [15] -0.122 | [16] 0.121 | [17] -0.051 | [18] -0.13 | [19] 0.21 | [20] 0.016

LYRM4 (UniProt Q9HD34)
inactive: [1] 0.037 | [2] 0.041 | [3] -0.002 | [4] -0.006 | [5] 0.01 | [6] -0.043 | [7] -0.003 | [8] -0.003 | [9] -0.001 | [10] 0.015 | [11] 0.015 | [12] -0.069 | [13] 0.006 | [14] -0.058 | [15] -0.014 | [16] -0.002 | [17] -0.022 | [18] 0.008 | [19] -0.028 | [20] 0.026

LSM6 (UniProt P62312)
inactive: [1] 0.113 | [2] 0.046 | [3] -0.064 | [4] 0.016 | [5] -0.007 | [6] 0.039 | [7] 0.005 | [8] 0.009 | [9] -0.063 | [10] -0.041 | [11] -0.008 | [12] 0.012 | [13] 0.053 | [14] -0.039 | [15] -0.097 | [16] -0.07 | [17] -0.008 | [18] 0.046 | [19] 0.042 | [20] -0.267

MAEA (UniProt Q7L5Y9)
inactive: [1] 0.018 | [2] -0.053 | [3] -0.028 | [4] 0.021 | [5] 0.006 | [6] 0.023 | [7] 0.007 | [8] 0.002 | [9] 0.028 | [10] -0.015 | [11] 0.013 | [12] 0.026 | [13] 0.03 | [14] -0.012 | [15] -0.102 | [16] -0.032 | [17] 0.065 | [18] 0.042 | [19] 0.065 | [20] 0.019

MAN1B1 (UniProt Q9UKM7)
inactive: [1] -0.003 | [2] 0.043 | [3] -0.026 | [4] 0.013 | [5] -0.032 | [6] -0.037 | [7] 0.023 | [8] -0.029 | [9] 0.014 | [10] -0.047 | [11] -0.06 | [12] -0.032 | [13] 0.046 | [14] -0.042 | [15] 0.002 | [16] 0.056 | [17] -0.003 | [18] -0.021 | [19] 0.026 | [20] -0.017

MAD2L1BP isoform 3 (UniProt Q15013)
inactive: [1] -0.054 | [2] 0.061 | [3] -0.058 | [4] 0.008 | [5] -0.049 | [6] -0.029 | [7] -0.055 | [8] -0.005 | [9] -0.032 | [10] 0.014 | [11] 0.029 | [12] 0.003 | [13] 0.029 | [14] 0.023 | [15] 0.003 | [16] 0.005 | [17] 0.012 | [18] 0.052 | [19] 0.024

LYRM2 (UniProt Q9NU23)
inactive: [1] 0.005 | [2] -0.002 | [3] -0.042 | [4] -0.013 | [5] 0.007 | [6] -0.066 | [7] -0.071 | [8] -0.098 | [9] 0.013 | [10] -0.008 | [11] 0.032 | [12] -0.061 | [13] -0.014 | [14] -0.019 | [15] -0.101 | [16] 0.083 | [17] 0.021 | [18] 0.071 | [19] -0.247 | [20] -0.003

LZTFL1 (UniProt Q9NQ48)
inactive: [1] 0.03 | [2] 0 | [3] -0.069 | [4] -0.019 | [5] -0.011 | [6] -0.058 | [7] -0.041 | [8] -0.008 | [9] 0.015 | [10] 0.023 | [11] -0.019 | [12] -0.039 | [13] 0.017 | [14] -0.06 | [15] -0.01 | [16] 0.035 | [17] -0.004 | [18] 0.017 | [19] 0.034 | [20] -0.021

LTA4H (UniProt P09960)
inactive: [1] 0.055 | [2] -0.012 | [3] -0.079 | [4] -0.023 | [5] -0.006 | [6] -0.036 | [7] -0.049 | [8] -0.003 | [9] 0.009 | [10] 0.011 | [11] 0.03 | [12] -0.124 | [13] 0.033 | [14] -0.084 | [15] -0.029 | [16] 0.019 | [17] 0 | [18] 0.012 | [19] 0.012 | [20] 0.083

M6PR (UniProt P20645)
inactive: [1] 0.016 | [2] -0.005 | [3] -0.048 | [4] -0.071 | [5] 0.059 | [6] -0.03 | [7] 0.026 | [8] -0.05 | [9] -0.059 | [10] 0.088 | [11] -0.059 | [12] -0.054 | [13] -0.033 | [14] 0.059 | [15] -0.049 | [16] -0.167 | [17] 0.045 | [18] 0 | [19] 0.031 | [20] 0.214

MAPK3 (UniProt P27361)
inactive: [1] -0.04 | [2] -0.052 | [3] -0.045 | [4] 0.013 | [5] 0.102 | [6] -0.069 | [7] -0.031 | [8] 0 | [9] 0.081 | [10] -0.005 | [11] 0.137 | [12] -0.133 | [13] 0.034 | [14] -0.067 | [15] -0.055 | [16] -0.058 | [17] -0.019 | [18] 0.026 | [19] 0.011 | [20] -0.051

LYSMD1 (UniProt Q96S90)
inactive: [1] 0.002 | [2] -0.012 | [3] -0.078 | [4] 0.029 | [5] 0.014 | [6] -0.076 | [7] -0.048 | [8] -0.049 | [9] 0.007 | [10] 0.014 | [11] 0.044 | [12] -0.058 | [13] 0.053 | [14] -0.007 | [15] -0.004 | [16] -0.026 | [17] 0 | [18] -0.012 | [19] 0.071 | [20] 0.032

MAN2C1 isoform 4 (UniProt Q9NTJ4)
inactive: [1] -0.033 | [2] 0.039 | [3] 0.105 | [4] 0.109 | [5] 0.04 | [6] -0.008 | [7] 0.005 | [8] -0.099 | [9] 0.021 | [10] 0.036 | [11] -0.083 | [12] -0.019 | [13] -0.018 | [14] 0.092 | [15] -0.028 | [16] 0.036 | [17] 0.001 | [18] -0.005 | [19] 0.004 | [20] 0.003

MANEA (UniProt Q5SRI9)
inactive: [1] -0.011 | [2] 0.011 | [3] 0.002 | [4] 0.124 | [5] 0.007 | [6] -0.024 | [7] 0.021 | [8] 0.005 | [9] -0.044 | [10] -0.022 | [11] -0.019 | [12] -0.04 | [13] 0.053 | [14] 0.053 | [15] -0.06 | [16] -0.037 | [17] 0.033 | [18] 0.064 | [19] -0.011 | [20] -0.013

LZIC isoform 2 (UniProt Q8WZA0)
inactive: [1] 0.007 | [2] 0.043 | [3] -0.015 | [4] -0.015 | [5] -0.043 | [6] -0.016 | [7] -0.032 | [8] -0.042 | [9] -0.053 | [10] -0.004 | [11] 0.005 | [12] -0.016 | [13] -0.024 | [14] -0.048 | [15] -0.089 | [16] 0.058 | [17] -0.018 | [18] 0.018 | [19] -0.021 | [20] 0.029
